According to PMC10081768:

Molecular target: T1, HMP-1::GFP/α-catenin (C. elegans (endogenous in embryos)) (UniProt P90947)
T1 sequence: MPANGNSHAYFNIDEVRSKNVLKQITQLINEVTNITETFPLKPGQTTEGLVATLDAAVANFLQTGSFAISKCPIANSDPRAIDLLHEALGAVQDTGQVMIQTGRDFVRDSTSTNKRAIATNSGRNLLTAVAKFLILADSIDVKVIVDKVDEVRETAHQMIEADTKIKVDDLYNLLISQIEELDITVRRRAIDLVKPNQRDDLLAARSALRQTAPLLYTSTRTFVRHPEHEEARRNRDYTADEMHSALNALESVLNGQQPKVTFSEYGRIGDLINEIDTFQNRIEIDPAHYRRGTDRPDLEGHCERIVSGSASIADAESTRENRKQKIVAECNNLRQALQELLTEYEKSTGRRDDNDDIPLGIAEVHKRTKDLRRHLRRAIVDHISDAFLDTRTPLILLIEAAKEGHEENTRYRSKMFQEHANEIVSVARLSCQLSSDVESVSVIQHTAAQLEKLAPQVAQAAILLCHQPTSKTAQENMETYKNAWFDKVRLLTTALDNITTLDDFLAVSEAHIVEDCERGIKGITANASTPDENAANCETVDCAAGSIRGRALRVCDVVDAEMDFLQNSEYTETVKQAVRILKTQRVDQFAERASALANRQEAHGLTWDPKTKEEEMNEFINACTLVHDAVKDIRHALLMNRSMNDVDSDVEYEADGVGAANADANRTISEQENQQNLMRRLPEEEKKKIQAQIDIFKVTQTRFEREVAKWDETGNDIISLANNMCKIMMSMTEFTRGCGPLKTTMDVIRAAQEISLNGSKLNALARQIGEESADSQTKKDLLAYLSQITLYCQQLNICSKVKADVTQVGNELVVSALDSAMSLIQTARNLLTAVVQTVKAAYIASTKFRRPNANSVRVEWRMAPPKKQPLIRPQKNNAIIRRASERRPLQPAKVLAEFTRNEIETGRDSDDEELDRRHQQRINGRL
Experiment: affinity purification with mass spectrometry; single-step immunoprecipitation with anti-GFP coupled agarose beads from extracts of C. elegans embryos enriched for <50 cells, strain with endogenously tagged HMP-1::GFP; strain with soluble GFP alone as control; lysis buffer 20 mM Tris-HCl pH 7.9, 150 mM NaCl, 10% glycerol, 0.5 mM DTT, 0.05% Triton-X 100; LC-MS/MS

binding: binds
B1: HMP-2/β-catenin (protein, UniProt O44326 1-678)
chain: MLLHSTNSYSIFTDHEVETRTSRIRSAMFPDWIPPTSAAEATNSTTSIVEMMQMPTQQLKQSVMDLLTYEGSNDMSGLSLPDLVKLMCDHDESVVARAVHRAYMLSREDPNFFNAPGFDHRSFVEALMAASKSSNVNVRRNAIGALSHMSEQRGGPLLIFRSGGLAEIIRMLYDSLESVVHYAVTTLRNLLMHVSDSRAQARALNAVEALTPHLHKTNPKLLAQVADGLYFLLIDDAPSKITFLSLLGPQILVSILREYSDHRKLIYTVVRCIRSLSVCPSNKPALISLGCLPALYVELCTAKDERSQTAILVAMRNLSDSATNEENLTQLIIKLLEIIRVANDGMTACACGTLSNLTCNNTRNKQTVCSHGGIDALVTAIRRLPEVEEVTEPALCALRHCTARHSLAEEAQSELRFCQAFPVILDQLETLRTPVIKAALGVIRNSALLQTNLIELTQEQTANGHTAVSLTMDILRRAITAIEENPDIAVDGVPMWGVIEGAVSALHQLANHPAVAAACCDDIGQVGNPECPPFLDLLHRLLAHPRLGSMDDEVLEREILGLLYQLSKRPDGARAVESTGVSALLMESRGSQYKSVVTYANGVLSNLKRGDSAAIMNMSNSYDYEMSGSAADWQRDGLERELFAEMYPTNDGGHSESINMALNNSQMRPNHNWYDTDL

These are yes or no findings as the source states them, for the method shown. In cells and extracts the contact can be indirect. A yes stands for co-enrichment or nearness to the bait. Other partners may have been found. Sequences can lack the tags named with a protein.
